# Measured values published in paper PMC4291083, “Ex Vivo Characterization of a Novel Iodine-123-Labelled Aminomethylchroman as a Potential Agonist Ligand for SPECT Imaging of Dopamine D2/3 Receptors” (International Journal of Molecular Imaging, 2014).
# Further values from the same series stand in other lists.
# Assay: Biodistribution studies in rats
# Assay type: in vivo, Wistar rats
# Conditions: male rats
# Experimental: [^123I]-1 (SA ≥ 37 MBq/nmol) was received after radiolabelling in an isotonic acetate (9% EtOH) buffer (pH 4.8). The solution was passed through a membrane filter (0.2 μm) and was diluted to the proper concentrations. Male Wistar rats (approximately 250 g body weight, obtained from Harlan/Charles River, Zeist, Netherlands) received an intravenous injection in the tail vein of approximately 3.7 MBq/0.4 mL buffer of [^123I]-1 under O2/CO2 anaesthesia. Distribution to the tissue was measured 15 min, 30 min, and 1, 2, 3, 4, and 24 h after the injection to determine the time course of uptake in several organs, including the brain. Four rats were killed at each time point via bleeding by heart puncture (to minimize contribution of blood activity) under O2/CO2 anaesthesia followed by cervical dislocation. Brain regions (cerebellum, frontal and prefrontal cortex, olfactory bulbs, pituitary, medulla with pons, midbrain, striatum, hypothalamus, hippocampus, and thalamus) and various peripheral tissues (heart, lung, liver, spleen, kidney, muscle, fat, and thymus) were quickly excised and weighted. The activity of [^123I] was assayed in a gamma counter, and data was corrected for decay and the amount of radioactivity was presented as percentage of the injected dose, multiplied by the body weight in kilograms, per gram tissue or blood. Selective uptake in the striatum was determined by calculating the ratio of radioactivity in the striatum in relation to that in the cerebellum, since the density of dopamine D2/3 receptor is negligible in this brain area in rats.
smiles,measurement,setting,value
Oc1ccc2c(c1)O[C@@H](CNCc1ccc([123I])cc1)CC2 [[^123I]-1],"123I radioactivity, Heart",15 min after i.v. injection,1.678 ± 1.142 %ID × kg/g
same,"123I radioactivity, Heart",30 min after i.v. injection,0.658 ± 0.141 %ID × kg/g
same,"123I radioactivity, Heart",1 h after i.v. injection,0.962 ± 1.043 %ID × kg/g
same,"123I radioactivity, Heart",2 h after i.v. injection,0.669 ± 0.348 %ID × kg/g
same,"123I radioactivity, Heart",3 h after i.v. injection,0.372 ± 0.265 %ID × kg/g
same,"123I radioactivity, Heart",4 h after i.v. injection,0.180 ± 0.044 %ID × kg/g
same,"123I radioactivity, Heart",24 h after i.v. injection,0.033 ± 0.005 %ID × kg/g
same,"123I radioactivity, Liver",15 min after i.v. injection,1.316 ± 0.773 %ID × kg/g
same,"123I radioactivity, Liver",30 min after i.v. injection,2.644 ± 0.361 %ID × kg/g
same,"123I radioactivity, Liver",1 h after i.v. injection,2.470 ± 0.449 %ID × kg/g
same,"123I radioactivity, Liver",2 h after i.v. injection,2.713 ± 0.487 %ID × kg/g
same,"123I radioactivity, Liver",3 h after i.v. injection,2.387 ± 1.400 %ID × kg/g
same,"123I radioactivity, Liver",4 h after i.v. injection,3.164 ± 0.824 %ID × kg/g
same,"123I radioactivity, Liver",24 h after i.v. injection,0.260 ± 0.064 %ID × kg/g
same,"123I radioactivity, Lung",15 min after i.v. injection,3.483 ± 3.534 %ID × kg/g
same,"123I radioactivity, Lung",30 min after i.v. injection,5.673 ± 2.526 %ID × kg/g
same,"123I radioactivity, Lung",1 h after i.v. injection,1.622 ± 0.848 %ID × kg/g
same,"123I radioactivity, Lung",2 h after i.v. injection,0.390 ± 0.302 %ID × kg/g
same,"123I radioactivity, Lung",3 h after i.v. injection,0.936 ± 0.762 %ID × kg/g
same,"123I radioactivity, Lung",4 h after i.v. injection,0.573 ± 0.307 %ID × kg/g
same,"123I radioactivity, Lung",24 h after i.v. injection,0.040 ± 0.005 %ID × kg/g
same,"123I radioactivity, Muscle",1 h after i.v. injection,0.244 ± 0.023 %ID × kg/g
same,"123I radioactivity, Muscle",2 h after i.v. injection,0.124 ± 0.028 %ID × kg/g
same,"123I radioactivity, Muscle",3 h after i.v. injection,0.119 ± 0.028 %ID × kg/g
same,"123I radioactivity, Muscle",4 h after i.v. injection,0.084 ± 0.041 %ID × kg/g
same,"123I radioactivity, Muscle",24 h after i.v. injection,0.012 ± 0.004 %ID × kg/g
same,"123I radioactivity, Thymus",15 min after i.v. injection,0.365 ± 0.507 %ID × kg/g
same,"123I radioactivity, Thymus",30 min after i.v. injection,1.776 ± 0.200 %ID × kg/g
same,"123I radioactivity, Thymus",1 h after i.v. injection,1.591 ± 0.169 %ID × kg/g
same,"123I radioactivity, Thymus",2 h after i.v. injection,1.083 ± 0.454 %ID × kg/g
same,"123I radioactivity, Thymus",3 h after i.v. injection,0.946 ± 0.150 %ID × kg/g
same,"123I radioactivity, Thymus",4 h after i.v. injection,0.815 ± 0.244 %ID × kg/g
same,"123I radioactivity, Thymus",24 h after i.v. injection,0.024 ± 0.001 %ID × kg/g
